# PubChem BioAssay AID2685 (National Center for Advancing Translational Sciences (NCATS), 2010)
# The other results are listed elsewhere or left out. These are further read-outs of the screen, such as a control signal, another cell line or another target. No call is given for them. Most of these compounds were active or inconclusive in the main read-out, so they are no random draw. Potencies come from curve fits of mixed quality, noted in brackets.
# Test: qHTS Assay for Lipid Storage Modulators in Drosophila S3 Cells;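 as to cell number change: cells counted by Cell Tracker Red CMTPX staining in the red channel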
# Conditions: BODIPY lipid droplet fluorescence, 18-24 h; for cell number change: measured here: cell count max response, cells fed with added oleic acid
# Method in brief: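 Drosophila S3 cells got compounds at several concentrations plus oleic acid (400 uM solution). Laser-scanning cytometry with 488 nm excitation read lipid droplets at 500-530 nm and cells at 575-640 nm. Percent activity was relative to 20 uM Triacsin C.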
# [1] = measured here: lipid fluorescence (Fed channel) AC50, cells fed with added oleic acid
# [2] = measured here: cell number channel AC50, cells fed with added oleic acid
SMILES,cell number change [%],AC50 [1],AC50 [2]
COC(=O)c1cccc(NCN2C(=O)c3ccccc3C2=O)c1,10.7,,
NC(=O)C1CCN(Cc2nnnn2Cc2ccco2)CC1,-4.16,"0.103 µM [falling, full curve, poor fit]",
NC(=O)c1cn(-c2ccccc2)nc1-c1cc2ccccc2oc1=O,,"6.51 µM [falling, single point]","0.82 µM [falling, full curve, poor fit]"
CCOC(=O)C1CCN(C(=O)c2cc3cc4ccc(C)cc4nc3o2)CC1,11.5,"0.164 µM [rising, full curve, poor fit]",
COc1cccc(NC(=O)COC(=O)/C=C/c2ccco2)c1,11.1,"10.3 µM [rising, partial curve, poor fit]",
CCn1c(SCc2nc3ccccc3c(=O)[nH]2)nnc1C(C)NC(=O)c1ccccc1 (stereo unspecified),-8.39,"0.00411 µM [rising, full curve, poor fit]",
COc1ccccc1OCC(=O)Nc1cc(C(F)(F)F)ccc1-n1cncn1,,"0.58 µM [falling, partial curve, poor fit]","0.82 µM [rising, partial curve, poor fit]"
Cc1ccc(N(C)C(=O)C2CCCN2S(=O)(=O)c2cccc3nsnc23)cc1 (stereo unspecified),26.2,"9.2 µM [rising, partial curve]",
O=C(NCCc1ccccc1)C(=O)NCC1OCCN1S(=O)(=O)c1cccs1 (stereo unspecified),,,"0.0517 µM [rising, full curve, poor fit]"
Cc1ccc(C)c(SCC(=O)Nc2oc(C)c3c(C)n[nH]c(=O)c23)c1,-8.48,"2.06 µM [rising, partial curve, poor fit]",
FC(F)(F)c1ccc(CN2C[C@@H]3C(c4ccccc4)C4(c5ccccc5)CC3(C4)[C@H]2c2ccccc2)cc1 (stereo partly specified),-61.9,"20.6 µM [falling, single point]","29.1 µM [falling, single point]"
CCN(c1ccccc1)S(=O)(=O)c1ccc(NN)nc1,-28.1,"23.1 µM [rising, partial curve, poor fit]","0.0731 µM [falling, full curve, poor fit]"
CCOC(=O)c1c(NC(=O)CNC2CCCCC2)sc(C)c1C,-31.4,"23.1 µM [falling, partial curve]","14.6 µM [falling, single point]"
Cc1cc(/C=C(\C#N)C(=O)O)c(C)n1C1CC1,-33.3,,"32.6 µM [falling, single point]"
COc1cc(Cl)ccc1OCc1cc(C(=O)N(C)Cc2cn(C)nc2C)no1,,,"2.06 µM [rising, partial curve]"
CCN1C/C(=C/c2ccc(N3CCOCC3)cc2)C(=O)/C(=C/c2ccc(N3CCOCC3)cc2)C1,-96.5,"5.8 µM [falling, full curve]","16.4 µM [falling, single point]"
CC(C)NC(=O)NC(=O)CSc1nncn1C,,"0.82 µM [falling, full curve, poor fit]",
O=C(CSc1nnc(NC(=O)c2c(F)cccc2F)s1)Nc1ccc(F)cc1,,"20.6 µM [rising, partial curve, poor fit]",
CC(Sc1ncn[nH]1)C(=O)c1c(N)n(C)c(=O)n(C)c1=O (stereo unspecified),-10.4,"29.1 µM [rising, single point]",
COC(=O)c1ccccc1NC(=O)c1ccc(-c2cccc(Cl)c2)o1,,"6.51 µM [falling, single point]",

SMILES,cell number change [%],AC50 [1],AC50 [2]
C=CCNC(=O)CSc1nnc(-c2ccc(S(=O)(=O)N3CCCC3)cc2)n1C,-10.5,,
COc1ccc(C)cc1NC(=O)NC1CCCc2ccccc21 (stereo unspecified),16.4,"10 µM [rising, partial curve, poor fit]",
CC(C)(C)NC(=O)C(c1c[nH]c2ccccc12)N(C(=O)Cn1nnc(-c2ccc(Cl)cc2)n1)c1ccccc1F (stereo unspecified),21.8,"5.8 µM [rising, single point]",
COc1ccc(N(C(C)C(=O)NCCSCc2cccc(Cl)c2)S(C)(=O)=O)cc1 (stereo unspecified),19.3,"0.146 µM [falling, single point]",
O=C(NC1CCCc2ccccc21)c1cccnc1 (stereo unspecified),-9.19,,
COc1ccc(NC(=S)N2CCC(C(=O)c3ccc(C)cc3)CC2)c(OC)c1,10.7,"0.82 µM [falling, full curve]",
CCN(CC)c1ccc(NC(=O)c2cccc(OC)c2)c(C)c1,3.84,"6.51 µM [rising, single point]",
O=C(Nc1ccc(F)c(F)c1)C1CCCN(S(=O)(=O)c2cccc3nonc23)C1 (stereo unspecified),92.8,,"20.6 µM [rising, single point]"
Cc1nc2ccccn2c1-c1ccnc(SCc2ccc(Cl)cc2)n1,-19.2,"29.1 µM [falling, single point]",
Cc1cc(=O)n2c3ccccc3n(CC(O)CN3CCCCC3)c2c1C#N (stereo unspecified),-2.11,,
CC(=O)Nc1c(O)nc(SCc2ccccc2C#N)[nH]c1=O,-25.9,"4.11 µM [falling, full curve, poor fit]",
CCOC(=O)c1cccc(-c2c(-c3ccccc3)ncc3cc(OC)c(OC)cc23)c1,-32.3,"18.4 µM [falling, single point]","8.2 µM [falling, single point]"
CCC1=NN(C(=O)CCc2ccc3c(c2)OCO3)C(O)(C(F)(F)F)C1 (stereo unspecified),26.3,"0.092 µM [rising, full curve, poor fit]",
Cc1cc(NC(=O)CSc2nnc3ccccn23)no1,-71.4,,
Cc1ccnc(SCC(=O)Nc2c(C)n(C)n(-c3ccccc3)c2=O)n1,,"29.1 µM [falling, single point]",
CC(=O)c1c(O)c(C)c(O)c2c1OC1=CC(=O)C(C(C)=O)C(=O)[C@@]12C (stereo partly specified),20.8,,
COc1ccc(-c2cc(C(F)(F)F)n3nc(C)cc3n2)cc1,30,"14.6 µM [rising, partial curve]","0.184 µM [rising, full curve, poor fit]"
O=c1c2c3c(sc2nc2n1CCC2)CCCC3,21.3,"0.0058 µM [rising, full curve, poor fit]",
CCCn1c(=O)c2sccc2n2c(CCCC(=O)NCc3cccnc3)nnc12,-3.61,,"1.46 µM [rising, full curve, poor fit]"
COc1ccc2oc(=O)c(C(=O)N3c4ccccc4CC3C)cc2c1 (stereo unspecified),55.5,,"29.1 µM [rising, single point]"

SMILES,cell number change [%],AC50 [1],AC50 [2]
Cc1cc(C)c2c(=O)n(CC(=O)NC3CCCC3)sc2n1,-36.1,,
COc1ccc(NC(=O)C(C/C=C(/C)Cl)C(C)=O)cc1 (stereo unspecified),18.6,"25.9 µM [rising, single point]",
Cc1ccc(NC(=O)N2CCCC2C(=O)NCc2ccc(Cl)cc2)cc1 (stereo unspecified),6.3,"1.03 µM [falling, full curve]",
O=C(O)CSCC(=O)Nc1ccc(C(F)(F)F)cc1,164,,
O=c1cc(N2CCCCC2)c(-c2ccccc2)nn1Cc1ccccc1,-48.2,,
O=C(Nc1ccc2c(c1)OCO2)Nc1ccc(Cl)cc1Cl,,"2.31 µM [rising, partial curve]","0.366 µM [rising, full curve]"
COc1ccc(CC(=O)N2CCCc3ccccc32)cc1,1.51,"0.291 µM [falling, full curve, poor fit]",
C=CCn1c(Cc2cccs2)nnc1SCC(=O)c1ccc2ccccc2c1,67.9,"3.26 µM [rising, partial curve]","9.2 µM [rising, partial curve]"
Cc1ccc(C#CC[N+]2(CC#Cc3ccc(C)cc3)CCCCC2)cc1,-32.3,,"3.26 µM [falling, full curve, poor fit]"
Cc1cc(NC(=O)CSc2n[nH]c(=O)[nH]c2=O)ccc1Br,11.4,,"3.26 µM [falling, single point]"
COc1ccc(CN2CCCC2C(=O)Nc2ccc(OC)c(OC)c2)cc1OC (stereo unspecified),-0.559,"0.206 µM [falling, full curve]",
CCOC(=O)c1sc(=NC(=O)/C=C/c2cccs2)n(C)c1C,53.2,"0.651 µM [rising, partial curve, poor fit]","0.82 µM [rising, partial curve]"
N/C(Cc1ccc([N+](=O)[O-])cc1)=N\OC(=O)COc1ccccc1Cl,,"2.06 µM [rising, partial curve]",
O=C(NCc1ccc2c(c1)OCO2)C1CCCN(C(=O)c2ccc(Cl)cc2)C1 (stereo unspecified),19.6,"6.51 µM [rising, single point]",
CCCc1nnc(NC(=O)c2nc(S(=O)(=O)Cc3ccc(C)cc3)ncc2Cl)s1,-6.52,,"0.731 µM [falling, partial curve, poor fit]"
Cc1ccc(-n2ccc(=O)c(C(=O)Nc3ccc(S(=O)(=O)Nc4nccc(C)n4)cc3)n2)cc1,,"6.51 µM [rising, single point]",
CNc1c([N+](=O)[O-])cnn1-c1ccc(Cl)cc1Cl,-0.149,"0.0651 µM [falling, full curve, poor fit]",
O=C(CSc1nc2ccccc2o1)Nc1nccs1,-13.9,"0.731 µM [falling, partial curve, poor fit]",
COc1ccccc1C(=O)NCCC(=O)NCCCSc1ccccc1,39.8,,"16.4 µM [rising, single point]"
C=CCOc1ccc(/C=C/C(=O)OCC(=O)NC2CCCCCC2)cc1,4.97,"29.1 µM [rising, single point]",

# Part of the list above, as tab-separated lines:
SMILES	cell number change [%]	AC50 [1]	AC50 [2]
Cc1ccc(NC(=O)N2CCCC2C(=O)NCc2ccc(Cl)cc2)cc1 (stereo unspecified)	6.3	1.03 µM [falling, full curve]	
O=C(O)CSCC(=O)Nc1ccc(C(F)(F)F)cc1	164		
O=c1cc(N2CCCCC2)c(-c2ccccc2)nn1Cc1ccccc1	-48.2		
O=C(Nc1ccc2c(c1)OCO2)Nc1ccc(Cl)cc1Cl		2.31 µM [rising, partial curve]	0.366 µM [rising, full curve]
COc1ccc(CC(=O)N2CCCc3ccccc32)cc1	1.51	0.291 µM [falling, full curve, poor fit]	
C=CCn1c(Cc2cccs2)nnc1SCC(=O)c1ccc2ccccc2c1	67.9	3.26 µM [rising, partial curve]	9.2 µM [rising, partial curve]
Cc1ccc(C#CC[N+]2(CC#Cc3ccc(C)cc3)CCCCC2)cc1	-32.3		3.26 µM [falling, full curve, poor fit]
Cc1cc(NC(=O)CSc2n[nH]c(=O)[nH]c2=O)ccc1Br	11.4		3.26 µM [falling, single point]
COc1ccc(CN2CCCC2C(=O)Nc2ccc(OC)c(OC)c2)cc1OC (stereo unspecified)	-0.559	0.206 µM [falling, full curve]	
CCOC(=O)c1sc(=NC(=O)/C=C/c2cccs2)n(C)c1C	53.2	0.651 µM [rising, partial curve, poor fit]	0.82 µM [rising, partial curve]
N/C(Cc1ccc([N+](=O)[O-])cc1)=N\OC(=O)COc1ccccc1Cl		2.06 µM [rising, partial curve]	
O=C(NCc1ccc2c(c1)OCO2)C1CCCN(C(=O)c2ccc(Cl)cc2)C1 (stereo unspecified)	19.6	6.51 µM [rising, single point]	
CCCc1nnc(NC(=O)c2nc(S(=O)(=O)Cc3ccc(C)cc3)ncc2Cl)s1	-6.52		0.731 µM [falling, partial curve, poor fit]
Cc1ccc(-n2ccc(=O)c(C(=O)Nc3ccc(S(=O)(=O)Nc4nccc(C)n4)cc3)n2)cc1		6.51 µM [rising, single point]	
CNc1c([N+](=O)[O-])cnn1-c1ccc(Cl)cc1Cl	-0.149	0.0651 µM [falling, full curve, poor fit]	
O=C(CSc1nc2ccccc2o1)Nc1nccs1	-13.9	0.731 µM [falling, partial curve, poor fit]	
COc1ccccc1C(=O)NCCC(=O)NCCCSc1ccccc1	39.8		16.4 µM [rising, single point]
